# Measured values as given in the supplement of paper PMC10849652.
# By UniProt entry, the sequences of proteins in these tests, tags left out. Where a name states a change or a piece, a line headed by the entry shows the natural chain unless it says otherwise.
# UniProt Q9NZJ5: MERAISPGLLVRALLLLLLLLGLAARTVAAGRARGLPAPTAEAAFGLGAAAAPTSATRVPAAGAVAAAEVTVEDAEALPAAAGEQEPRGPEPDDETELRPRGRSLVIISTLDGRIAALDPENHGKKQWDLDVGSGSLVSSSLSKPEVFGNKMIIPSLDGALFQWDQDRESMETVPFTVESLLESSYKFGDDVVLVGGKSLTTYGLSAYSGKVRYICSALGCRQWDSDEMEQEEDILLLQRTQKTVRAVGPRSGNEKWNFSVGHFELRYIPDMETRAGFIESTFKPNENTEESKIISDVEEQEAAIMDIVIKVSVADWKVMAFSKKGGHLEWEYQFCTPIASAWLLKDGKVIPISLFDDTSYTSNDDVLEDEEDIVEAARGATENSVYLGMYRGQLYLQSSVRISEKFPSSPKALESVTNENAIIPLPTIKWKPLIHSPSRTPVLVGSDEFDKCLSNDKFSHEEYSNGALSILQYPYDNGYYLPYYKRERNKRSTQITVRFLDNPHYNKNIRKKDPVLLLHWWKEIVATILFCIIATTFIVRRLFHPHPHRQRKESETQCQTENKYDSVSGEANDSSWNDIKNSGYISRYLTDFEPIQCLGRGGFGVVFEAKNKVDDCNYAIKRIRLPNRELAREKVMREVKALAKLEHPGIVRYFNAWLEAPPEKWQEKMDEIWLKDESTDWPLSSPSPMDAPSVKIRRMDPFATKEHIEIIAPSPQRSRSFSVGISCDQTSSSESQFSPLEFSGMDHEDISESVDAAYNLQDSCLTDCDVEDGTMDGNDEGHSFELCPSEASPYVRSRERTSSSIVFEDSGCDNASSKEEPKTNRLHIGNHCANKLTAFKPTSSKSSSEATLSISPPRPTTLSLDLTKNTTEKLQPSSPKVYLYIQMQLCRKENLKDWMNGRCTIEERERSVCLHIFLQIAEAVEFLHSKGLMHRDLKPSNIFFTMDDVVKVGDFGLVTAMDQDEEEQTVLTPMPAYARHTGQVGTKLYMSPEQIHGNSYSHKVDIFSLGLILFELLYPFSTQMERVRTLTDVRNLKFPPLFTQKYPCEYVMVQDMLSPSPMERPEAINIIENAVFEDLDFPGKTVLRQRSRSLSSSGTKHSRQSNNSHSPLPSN
# UniProt Q9NQZ7: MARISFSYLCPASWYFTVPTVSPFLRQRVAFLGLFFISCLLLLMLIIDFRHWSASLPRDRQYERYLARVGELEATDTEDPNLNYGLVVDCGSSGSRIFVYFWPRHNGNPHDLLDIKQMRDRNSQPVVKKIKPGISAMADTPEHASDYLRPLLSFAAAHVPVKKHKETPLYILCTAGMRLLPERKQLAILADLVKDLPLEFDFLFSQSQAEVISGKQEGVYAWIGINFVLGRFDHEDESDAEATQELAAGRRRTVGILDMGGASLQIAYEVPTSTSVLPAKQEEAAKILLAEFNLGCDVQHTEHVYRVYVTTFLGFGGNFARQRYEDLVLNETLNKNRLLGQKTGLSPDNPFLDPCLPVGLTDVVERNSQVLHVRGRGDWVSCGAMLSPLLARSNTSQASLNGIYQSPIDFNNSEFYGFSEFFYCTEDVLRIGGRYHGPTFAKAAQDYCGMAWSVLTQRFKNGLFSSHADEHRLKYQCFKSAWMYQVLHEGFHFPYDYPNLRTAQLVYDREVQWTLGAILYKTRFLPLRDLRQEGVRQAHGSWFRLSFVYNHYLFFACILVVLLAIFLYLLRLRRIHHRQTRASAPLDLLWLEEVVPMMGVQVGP
# UniProt O00418: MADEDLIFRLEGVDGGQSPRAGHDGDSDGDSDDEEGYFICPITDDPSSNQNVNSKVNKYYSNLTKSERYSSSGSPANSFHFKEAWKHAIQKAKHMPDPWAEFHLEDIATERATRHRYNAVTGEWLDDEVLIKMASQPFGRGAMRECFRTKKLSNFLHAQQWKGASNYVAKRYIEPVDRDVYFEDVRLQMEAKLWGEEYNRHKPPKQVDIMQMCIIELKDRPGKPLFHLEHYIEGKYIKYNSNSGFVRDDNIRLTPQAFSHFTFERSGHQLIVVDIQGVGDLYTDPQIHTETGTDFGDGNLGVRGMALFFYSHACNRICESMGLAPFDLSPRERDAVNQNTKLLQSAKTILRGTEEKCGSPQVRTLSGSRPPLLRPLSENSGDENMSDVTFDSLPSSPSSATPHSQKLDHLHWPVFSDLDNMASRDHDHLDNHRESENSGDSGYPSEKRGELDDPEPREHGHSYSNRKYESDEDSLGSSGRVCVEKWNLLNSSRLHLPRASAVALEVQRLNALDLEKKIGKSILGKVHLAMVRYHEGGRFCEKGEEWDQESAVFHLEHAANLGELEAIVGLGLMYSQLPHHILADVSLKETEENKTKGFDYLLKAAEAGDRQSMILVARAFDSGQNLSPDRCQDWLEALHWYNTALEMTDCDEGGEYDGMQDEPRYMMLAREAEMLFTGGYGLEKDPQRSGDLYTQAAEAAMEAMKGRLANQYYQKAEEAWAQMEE
# UniProt O60739, whole entry, looked up: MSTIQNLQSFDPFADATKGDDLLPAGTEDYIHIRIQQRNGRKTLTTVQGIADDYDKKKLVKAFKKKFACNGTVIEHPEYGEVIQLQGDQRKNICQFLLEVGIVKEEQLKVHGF
# UniProt Q9UI10, whole entry, looked up: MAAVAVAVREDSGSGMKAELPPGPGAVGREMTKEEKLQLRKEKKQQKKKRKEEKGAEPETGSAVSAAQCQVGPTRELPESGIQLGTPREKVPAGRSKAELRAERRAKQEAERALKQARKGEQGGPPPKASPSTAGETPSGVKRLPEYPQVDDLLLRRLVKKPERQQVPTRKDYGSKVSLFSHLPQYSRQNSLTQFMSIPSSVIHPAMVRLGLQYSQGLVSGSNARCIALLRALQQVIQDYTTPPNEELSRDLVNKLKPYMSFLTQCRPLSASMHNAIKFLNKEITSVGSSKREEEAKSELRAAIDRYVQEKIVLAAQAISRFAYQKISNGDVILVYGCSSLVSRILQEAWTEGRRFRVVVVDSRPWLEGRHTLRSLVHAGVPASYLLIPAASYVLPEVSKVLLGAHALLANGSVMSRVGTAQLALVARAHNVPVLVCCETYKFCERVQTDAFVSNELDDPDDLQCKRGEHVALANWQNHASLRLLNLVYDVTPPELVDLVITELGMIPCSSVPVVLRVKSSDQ
# UniProt Q05BV3: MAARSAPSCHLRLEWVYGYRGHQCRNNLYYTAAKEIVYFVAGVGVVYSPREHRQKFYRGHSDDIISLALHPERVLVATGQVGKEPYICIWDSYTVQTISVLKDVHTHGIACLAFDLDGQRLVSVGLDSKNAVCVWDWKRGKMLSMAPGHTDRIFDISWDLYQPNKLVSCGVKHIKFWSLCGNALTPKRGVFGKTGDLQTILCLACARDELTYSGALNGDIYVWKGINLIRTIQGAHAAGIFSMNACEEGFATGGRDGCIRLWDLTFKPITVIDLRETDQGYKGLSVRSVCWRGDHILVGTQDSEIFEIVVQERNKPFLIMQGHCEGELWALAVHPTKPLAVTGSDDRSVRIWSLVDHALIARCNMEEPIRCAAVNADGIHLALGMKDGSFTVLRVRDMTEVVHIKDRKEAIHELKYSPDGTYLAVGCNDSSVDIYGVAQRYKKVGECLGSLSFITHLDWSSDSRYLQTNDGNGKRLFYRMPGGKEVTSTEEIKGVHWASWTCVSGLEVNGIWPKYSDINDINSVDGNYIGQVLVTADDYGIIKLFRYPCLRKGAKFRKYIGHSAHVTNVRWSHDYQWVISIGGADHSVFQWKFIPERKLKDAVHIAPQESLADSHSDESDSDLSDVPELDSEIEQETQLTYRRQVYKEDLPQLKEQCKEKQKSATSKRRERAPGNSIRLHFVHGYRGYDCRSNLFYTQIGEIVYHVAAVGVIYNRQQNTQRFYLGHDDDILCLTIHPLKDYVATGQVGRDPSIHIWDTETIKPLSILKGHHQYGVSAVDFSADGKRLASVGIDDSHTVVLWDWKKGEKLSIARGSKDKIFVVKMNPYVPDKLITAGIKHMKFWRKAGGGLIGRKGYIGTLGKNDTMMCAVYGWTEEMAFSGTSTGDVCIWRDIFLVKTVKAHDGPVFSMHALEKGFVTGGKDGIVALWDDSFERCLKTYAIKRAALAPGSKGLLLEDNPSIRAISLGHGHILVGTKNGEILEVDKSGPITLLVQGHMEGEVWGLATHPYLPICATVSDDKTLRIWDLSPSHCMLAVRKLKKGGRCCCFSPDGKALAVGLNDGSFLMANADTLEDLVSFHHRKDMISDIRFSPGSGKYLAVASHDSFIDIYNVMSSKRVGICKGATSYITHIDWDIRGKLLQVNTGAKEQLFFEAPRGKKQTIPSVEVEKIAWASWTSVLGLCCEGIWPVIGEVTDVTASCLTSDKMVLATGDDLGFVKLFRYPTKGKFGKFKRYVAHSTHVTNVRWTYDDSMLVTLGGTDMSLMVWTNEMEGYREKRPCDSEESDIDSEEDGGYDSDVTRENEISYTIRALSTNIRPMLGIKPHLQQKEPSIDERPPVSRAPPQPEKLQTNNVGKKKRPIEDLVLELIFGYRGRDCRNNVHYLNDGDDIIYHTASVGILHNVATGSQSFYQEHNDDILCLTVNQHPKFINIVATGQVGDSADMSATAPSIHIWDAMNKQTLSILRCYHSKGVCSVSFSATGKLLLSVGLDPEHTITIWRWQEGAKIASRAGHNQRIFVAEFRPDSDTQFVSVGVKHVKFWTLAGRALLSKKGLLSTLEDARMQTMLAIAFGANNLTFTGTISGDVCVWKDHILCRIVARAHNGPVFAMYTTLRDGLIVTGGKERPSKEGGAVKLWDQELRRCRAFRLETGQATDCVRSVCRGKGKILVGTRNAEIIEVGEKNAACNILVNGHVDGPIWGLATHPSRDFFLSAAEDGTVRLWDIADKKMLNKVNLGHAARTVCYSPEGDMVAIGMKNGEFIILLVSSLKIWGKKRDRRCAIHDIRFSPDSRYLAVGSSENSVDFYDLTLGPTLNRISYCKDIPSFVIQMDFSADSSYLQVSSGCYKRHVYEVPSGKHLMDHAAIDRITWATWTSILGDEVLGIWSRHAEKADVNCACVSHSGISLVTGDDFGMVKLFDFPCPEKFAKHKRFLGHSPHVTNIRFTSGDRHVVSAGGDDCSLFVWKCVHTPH
# UniProt Q8NDI1: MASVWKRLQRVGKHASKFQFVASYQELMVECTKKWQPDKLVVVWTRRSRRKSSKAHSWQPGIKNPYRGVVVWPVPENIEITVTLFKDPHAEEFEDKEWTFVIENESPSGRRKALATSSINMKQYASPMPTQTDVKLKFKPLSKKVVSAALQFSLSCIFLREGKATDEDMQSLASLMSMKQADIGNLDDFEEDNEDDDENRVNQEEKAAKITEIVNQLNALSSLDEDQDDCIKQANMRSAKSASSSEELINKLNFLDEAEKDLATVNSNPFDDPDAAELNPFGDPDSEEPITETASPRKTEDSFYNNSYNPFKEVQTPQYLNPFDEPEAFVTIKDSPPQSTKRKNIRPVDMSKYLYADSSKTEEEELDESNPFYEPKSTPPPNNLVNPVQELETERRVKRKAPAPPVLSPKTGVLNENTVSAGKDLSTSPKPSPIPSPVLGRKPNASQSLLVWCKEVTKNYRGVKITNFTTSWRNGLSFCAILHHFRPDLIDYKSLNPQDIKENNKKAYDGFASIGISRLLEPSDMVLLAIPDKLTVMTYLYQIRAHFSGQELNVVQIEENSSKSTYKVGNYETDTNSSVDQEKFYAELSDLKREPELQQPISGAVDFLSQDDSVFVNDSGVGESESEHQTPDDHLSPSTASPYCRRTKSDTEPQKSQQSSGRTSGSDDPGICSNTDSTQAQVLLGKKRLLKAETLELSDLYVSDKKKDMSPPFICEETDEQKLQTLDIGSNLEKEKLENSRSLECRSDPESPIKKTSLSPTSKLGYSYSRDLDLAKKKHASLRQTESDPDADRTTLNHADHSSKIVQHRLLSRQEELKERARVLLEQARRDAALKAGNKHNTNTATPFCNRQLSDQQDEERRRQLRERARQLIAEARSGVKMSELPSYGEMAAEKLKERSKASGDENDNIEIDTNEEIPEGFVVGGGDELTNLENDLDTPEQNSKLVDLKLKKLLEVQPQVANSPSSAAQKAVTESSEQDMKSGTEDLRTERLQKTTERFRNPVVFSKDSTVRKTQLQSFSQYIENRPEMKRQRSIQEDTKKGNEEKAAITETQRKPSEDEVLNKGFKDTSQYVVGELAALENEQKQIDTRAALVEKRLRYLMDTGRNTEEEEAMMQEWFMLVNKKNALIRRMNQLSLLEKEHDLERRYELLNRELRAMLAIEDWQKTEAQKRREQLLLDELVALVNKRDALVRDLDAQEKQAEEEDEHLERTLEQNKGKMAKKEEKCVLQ
# UniProt Q9BUP0: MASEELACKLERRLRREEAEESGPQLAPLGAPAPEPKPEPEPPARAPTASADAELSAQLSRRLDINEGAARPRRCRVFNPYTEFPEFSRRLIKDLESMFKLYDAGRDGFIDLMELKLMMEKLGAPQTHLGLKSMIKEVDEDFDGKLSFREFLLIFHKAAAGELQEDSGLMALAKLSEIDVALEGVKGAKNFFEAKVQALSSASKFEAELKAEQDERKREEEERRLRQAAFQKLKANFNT
# The list shows a part of the results.
# Compound: NC1(c2ccc(-c3nc4ccn5c(=O)[nH]nc5c4cc3-c3ccccc3)cc2)CCC1
# Assay: log2 fold change, soluble protein after heating vs DMSO (PISA); higher = thermal stabilisation; K562 cells, 10 uM, 30 min; active = over 0.2 and 3.5 SD of the protein, either way, in both replicates (recomputed)
# Summary of the method: (§1)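 Values are thermal stability changes relative to control samples and are taken from duplicates. They are stated as log2 fold changes. Before quantification by TMTpro 16plex LC-MS/MS with equalised channel sums, K562 cells at 2×10^6 cells/mL were treated with 10 μM compound for 30 min, heated in aliquots for 3 min across 48°C-58°C, pooled, extracted in PBS with 0.5% NP-40 at 4°C, and centrifuged at 21,000xg for 90 min to give the soluble supernatant.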
row,Target,log2 fold change
1,EIF2AK3 (UniProt Q9NZJ5),inactive: -0.211
2,ENTPD7 (UniProt Q9NQZ7),inactive: -0.052
3,EEF2K (UniProt O00418),inactive: -0.119
4,EIF1B (UniProt O60739),inactive: 0.129
5,EPB41L1 (UniProt Q9H4G0),inactive: -0.017
6,EIF4B (UniProt F8VP89),inactive: 0.025
7,EIF2B4 (UniProt Q9UI10),inactive: -0.125
8,EPB41 isoform 4 (UniProt P11171),inactive: 0.015
9,EID1 (UniProt Q9Y6B2),inactive: -0.055
10,ELOA (UniProt Q14241),inactive: 0.187
11,EIF5A2 (UniProt Q9GZV4),inactive: -0.126
12,EML5 isoform 5 (UniProt Q05BV3),inactive: -0.121
13,EEF1AKMT2 (UniProt Q5JPI9),inactive: 0.039
14,EHBP1 (UniProt Q8NDI1),inactive: 0.017
15,EEF1D isoform 3 (UniProt P29692),inactive: 0.2

# Compound: NCC(=O)Nc1ccc(-n2nc(C(F)(F)F)cc2-c2ccc3c(ccc4ccccc43)c2)cc1
# Assay: as above
# Summary of the method: as §1
row,Target,log2 fold change
1,EEF2K (UniProt O00418),inactive: -0.114
2,EFHD1 (UniProt Q9BUP0),inactive: -0.019
3,EPB41L1 (UniProt Q9H4G0),inactive: 0.118
4,EIF2B4 (UniProt Q9UI10),inactive: -0.109
5,EIF4G1 (UniProt Q04637),inactive: -0.075
6,ENTR1 (UniProt Q96C92),inactive: -0.284
7,ENAH (UniProt Q8N8S7),inactive: -0.506
8,ENKD1 (UniProt Q9H0I2),inactive: -0.12
9,EML5 isoform 5 (UniProt Q05BV3),inactive: -0.096

# Compound: Nc1ccccc1NC(=O)c1ccc(CNC(=O)OCc2cccnc2)cc1 [entinostat]
# Assay: as above
# Summary of the method: as §1
row,Target,log2 fold change
1,ENTPD4 (UniProt Q9Y227),inactive: -0.025
2,ENTPD7 (UniProt Q9NQZ7),inactive: 0.236
3,EIF1B (UniProt O60739),inactive: 0.12
4,EFHD1 (UniProt Q9BUP0),inactive: 0.026
5,EID1 (UniProt Q9Y6B2),inactive: 0.086
6,ENO2 (UniProt U3KQQ1),inactive: -0.336
7,EEF1AKMT4-ECE2 (UniProt P0DPD8),inactive: 0.251
8,EEF1AKMT2 (UniProt Q5JPI9),inactive: -0.05

# Compound: O=C(CCCCCCC(=O)Nc1ccccc1)NO [vorinostat]
# Assay: as above
# Summary of the method: as §1
row,Target,log2 fold change
1,EFCAB2 (UniProt Q5VUJ9),inactive: -0.083
2,EIF2AK3 (UniProt Q9NZJ5),inactive: -0.02
3,ELK1 (UniProt P19419),inactive: -0.06
4,ENTPD4 (UniProt Q9Y227),inactive: -0.138
5,EEF2K (UniProt O00418),inactive: 0.19
6,EFHD1 (UniProt Q9BUP0),inactive: 0
7,EPB41L1 (UniProt Q9H4G0),inactive: -0.007
8,EIF4B (UniProt F8VP89),inactive: -0.178
9,EIF2B4 (UniProt Q9UI10),inactive: 0.027
10,EPB41 isoform 4 (UniProt P11171),inactive: 0.234
11,EIF4G1 (UniProt Q04637),inactive: 0.085
12,EID1 (UniProt Q9Y6B2),inactive: -0.457
13,ENO2 (UniProt U3KQQ1),inactive: -0.605
14,ELOA (UniProt Q14241),inactive: -0.105
15,ENAH (UniProt Q8N8S7),inactive: 0.083
16,ENKD1 (UniProt Q9H0I2),inactive: 0.11
17,EIF4H isoform 2 (UniProt Q15056),inactive: -0.166
18,EHBP1 (UniProt Q8NDI1),inactive: -0.034
19,ELAVL4 (UniProt P26378),inactive: 0.026

# Compound: O=C(CCCCCCNC(=O)c1cnc(N(c2ccccc2)c2ccccc2Cl)nc1)NO [citarinostat]
# Assay: as above
# Summary of the method: as §1
row,Target,log2 fold change
1,EFCAB2 (UniProt Q5VUJ9),inactive: 0.058
2,EIF2AK3 (UniProt Q9NZJ5),inactive: -0.039
3,ENTPD4 (UniProt Q9Y227),inactive: -0.247
4,ENTPD7 (UniProt Q9NQZ7),inactive: 0.131
5,EEF2K (UniProt O00418),inactive: -0.05
6,EIF1B (UniProt O60739),inactive: -0.053
7,EPB41L1 (UniProt Q9H4G0),inactive: -0.027
8,EIF4B (UniProt F8VP89),inactive: -0.033
9,EIF2B4 (UniProt Q9UI10),inactive: -0.033
10,ELOA (UniProt Q14241),inactive: -0.066
11,ENKD1 (UniProt Q9H0I2),inactive: -0.109
12,EEF1AKMT2 (UniProt Q5JPI9),inactive: -0.004
13,EIF4E3 (UniProt Q8N5X7),inactive: -0.006
14,EHBP1 (UniProt Q8NDI1),inactive: -0.009
15,ELAVL4 (UniProt P26378),inactive: -0.106

# Compound: O=C(O)c1ccc2c(c1)nc(Nc1cccc(Cl)c1)c1ccncc12 [silmitasertib]
# Assay: as above
# Summary of the method: as §1
row,Target,log2 fold change
1,EIF2AK3 (UniProt Q9NZJ5),inactive: -0.085
2,ENTPD7 (UniProt Q9NQZ7),inactive: -0.357
3,EEF2K (UniProt O00418),inactive: 0.216
4,EIF1B (UniProt O60739),inactive: 0.015
5,EPB41L1 (UniProt Q9H4G0),inactive: 0.022
6,EIF4B (UniProt F8VP89),inactive: -0.048
7,EIF2B4 (UniProt Q9UI10),inactive: 0.05
8,EPB41 isoform 4 (UniProt P11171),inactive: -0.099
9,EID1 (UniProt Q9Y6B2),inactive: -0.156
10,ELOA (UniProt Q14241),inactive: -0.006
11,EIF5A2 (UniProt Q9GZV4),inactive: 0.105
12,EML5 isoform 5 (UniProt Q05BV3),inactive: 0.033
13,EEF1AKMT2 (UniProt Q5JPI9),inactive: 0.028
14,EHBP1 (UniProt Q8NDI1),inactive: 0.087
15,EEF1D isoform 3 (UniProt P29692),inactive: -0.401
